The whole screen tested about 210,000 compounds, of which about 5,900 (2.8%) were called active. Another 5% or so got no clear call; they are omitted. The call rests on the fitted dose curve; in most records, active means well fitted activation curve with a large enough effect; inconclusive means small, poorly fitted or top-dose-only effect; inactive means no such curve, though single readings can be large or run the other way. Only a part is listed here, and it is no random draw. Entries without a call were filed so in the source.
Experiment: qHTS Assay for Enhancers of SMN2 Splice Variant Expression; further: nearly all actives have a fitted effect of over 55% in size; on activity change, positive = activation: % of control where 0% means no effect
Conditions: HEK293 SMN2-luciferase splicing reporter, luminescence, 30-36 h; activity change, positive = activation: at 46.1 µM (top of the series) unless noted
Procedure, shortened: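 HEK293 cells carry an SMN2 […]–luciferase reporter in which exon 7 inclusion puts luciferase in frame. Cells were plated 10-12 h before compound addition, then incubated 30-36 h at 37C. ONE-Glo luminescence was read; sodium butyrate at 4.5 mM final served as control.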
Potency means the concentration at half of the fitted maximal effect.

| Structure (SMILES) | activity change, positive = activation | Potency |
| --- | --- | --- |
| CCOC(=O)CSC1=C(C#N)C(c2ccco2)C(C(=O)OCc2ccccc2)=C(C)N1 (stereo unspecified) | 31.1% |  |
| COC(=O)c1ccc(C(NC(=O)c2ccco2)[C@]2(C)C[C@H]2C2CCCCC2)cc1 (stereo partly specified) | inactive: -32.9% |  |
| CCOC(=O)c1sc(/N=C/Nc2nc(C)c(C(=O)OCC)s2)nc1C | 47.7% |  |
| O=C(Nc1ccc(N2CCN(C(=O)c3ccc(Cl)cc3)CC2)cc1)c1ccc2c(c1)OCCO2 | inactive: -65.5% |  |
| O=C(NCCCN1CCOCC1)C1(c2ccccc2)CCCC1 | 31.2% |  |
| Cc1sc(NC(=O)c2ccco2)nc1-c1ccc2c(c1)CC(C)N2C(=O)C1CC1 (stereo unspecified) | inactive: -37.6% |  |
| O=S(=O)(c1ccc2c(c1)OCCO2)N1CCN(c2cccc(Cl)c2)CC1 | -41.5% |  |
| CCn1c(-c2ccc(N(C)C)cc2)nc2ccccc21 |  | active: 12.6 µM |
| S=C1NC=NC2N=CNC12 (stereo unspecified) | inactive: -37.9% |  |
| Cc1nn(-c2ccccc2)c(N2CCCC2)c1/C=N/NC(=O)c1cc2ccccc2cc1O | -53.6% |  |
| O=c1c(-c2ccccc2)nc2cncnc2n1Cc1ccc(F)cc1 | inactive: -53.4% |  |
| COc1ccc(O)c(/C=N/NC(=O)c2ccc(OCc3cccc(Br)c3)cc2)c1 | inactive: -78.8% |  |
| Cc1nnc(SCc2nc3ccccc3s2)n1N | 111% |  |
| CCOC(=O)CSc1ccc(-c2nc3ccccc3[nH]2)cn1 | 36.2% |  |
| Nc1ncc2c(n1)-c1ccccc1CC2 | 34.1% |  |
| O=C(NCCCc1ccccc1)c1nn(-c2ccccc2)nc1CO | inactive: -33.7% |  |
| CCN(CC)c1nc(-c2ccccn2)nc(-c2ccccc2)c1C#N | inactive: -80.7% |  |
| O=C(Nc1nc2c(Cl)cccc2s1)c1ccc(Br)o1 | 34.4% |  |
| Cc1cccc(CCNC(=O)CCCOc2cc(=O)n(C)c3ccccc23)c1 | -4.07% |  |
| Cc1cc(NCc2ccc(Cl)cc2)n2cnnc2n1 | inactive: -51.3% |  |
| O=C(Nc1ccc(S(=O)(=O)N2CCCCC2)cc1)c1cnccn1 | inactive: -45.6% |  |
| CC[n+]1ccccc1/C=C/c1ccc(N(C)C)cc1 | inactive: -54.5% |  |

| Structure (SMILES) | activity change, positive = activation | Potency |
| --- | --- | --- |
| COc1ccc(C2C(C(=O)N3CCOCC3)=C(C)NC3=C2C(=O)CC(C)(C)C3)cc1O (stereo unspecified) | 50.5% |  |
| Cc1ccc(NC(=O)Cc2ccccc2Cl)cc1S(=O)(=O)N(C)C | -40.7% |  |
| O=C(CCl)Nc1cc(SCC(O)CO)cc([N+](=O)[O-])c1 (stereo unspecified) | inactive: -105% |  |
| CCc1ccc(NC(=O)Cn2c(=O)n(CCCC(=O)NCc3ccccc3Cl)c(=O)c3ccccc32)cc1 | 38.5% |  |
| O=C(COC(=O)c1cc(-c2cccc(Br)c2)nc2ccccc12)NCC1CCCO1 (stereo unspecified) | 117% |  |
| COc1ccccc1-c1nnc(C2CCN(S(=O)(=O)c3ccc(CC(C)C)cc3)CC2)o1 | inactive: -36.1% |  |
| N=c1n(CCN2CCCC2)c2ccccc2n1CC(O)c1ccco1 (stereo unspecified) | 31.1% |  |
| COc1ccc(OC)c(NC(=O)CSc2nnc(N)s2)c1 | 41.7% |  |
| O=C(c1ccco1)N1CCC2(CCN(Cc3cc(C(F)(F)F)cc(C(F)(F)F)c3)CC2)CC1 | -34.1% |  |
| COc1cc(/C=C2\SC(=Nc3ccc(O)cc3)NC2=O)cc(OC)c1O | 32.7% |  |
| CCN1CCCC1CNS(=O)(=O)c1ccc(C(=O)Nc2ccccc2)cc1 (stereo unspecified) | 35.9% |  |
| CC(C)(C)C1=CC(=Nc2ccccc2N)C=C(C(C)(C)C)C1=O | inactive: 2.41% |  |
| CCCC(=O)Nc1nc2ccc(C(=O)OCC)cc2s1 |  | active: 17.8 µM |
| Cc1ccccc1NC(=O)CN1C(=O)S/C(=C\c2ccc(-c3cccc(C(=O)O)c3C)o2)C1=O |  | active: 11.2 µM |
| Cc1ccc(C(=O)O/N=C/c2c(N3CCOCC3)n(C)c3ccccc23)cc1 | inactive: -47.1% |  |
| O=C(Nc1cccnc1)c1cccs1 |  | active: 8.91 µM |
| COc1ccc(OC(C)C(=O)N2CCN(c3ccccn3)CC2)cc1 (stereo unspecified) | 36.6% |  |
| N=C1SCC(=O)N1c1nc(-c2ccccc2)cs1 |  | active: 11.2 µM |
| C=CCC(NCc1ccco1)c1ccc(OC)cc1OC (stereo unspecified) | 32.1% |  |
| CCOc1ccc(NC(=S)NC(=O)c2c(Cl)c(C)nn2C)c([N+](=O)[O-])c1 | 49% |  |
| O=C(CCCOc1ccc(Cl)cc1)N1CCCCC1 | 60.5% |  |
| Fc1ccc(N/N=C(/c2ccccc2)c2ccccn2)cc1 | -35.9% |  |

| Structure (SMILES) | activity change, positive = activation | Potency |
| --- | --- | --- |
| CCC(O)(CC)C(=O)N=Nc1c(O)[nH]c2ccccc12 | 47.2% |  |
| COc1ccc(C(=O)c2no[n+]([O-])c2C(=O)c2ccc(OC)cc2)cc1 | inactive: -95.1% |  |
| COc1ccc(Nc2cc(C)nc(-n3nc(C)cc3C)n2)cc1 | -62.3% |  |
| Cc1ccc(Cn2c(Cc3ccccc3)nc3ccccc32)cc1 |  | inactive |
| CC1=CC(C)(C)N2C(=O)C3(SCC(=O)N3c3ccc(F)cc3)c3cc(C)cc1c32 (stereo unspecified) | 35.3% |  |
| Cc1ccc(C2CC2c2n[nH]c(=S)n2-c2ccc(Cl)cc2)cc1 (stereo unspecified) | 36.1% |  |
| CCOc1ccccc1C1CC(=O)NC(C)=C1C(=O)OC1CCCCCC1 (stereo unspecified) | inactive: -35.8% |  |
| COc1ccc(-c2c(NC(=O)c3ccco3)n(C)c3ccccc3c2=O)cc1 | 70.2% |  |
| C=CCn1c(SCC(=O)Nc2sc(C)c(C)c2C(=O)OCC)nnc1-c1sc(N)nc1C | -74.4% |  |
| O=C(COc1ccc2c(c1)OCO2)Nc1ccc2c(c1)oc1ccccc12 | 39.7% |  |
| Cc1cc(C(=O)Nc2c(C)nn(Cc3ccc(F)cc3)c2C)on1 | -33.9% |  |
| COC(=O)c1cc2oc3ccccc3c2n1Cc1nc(-c2cccc(Cl)c2)oc1C | 24.7% |  |
| COCCN1C=C2C(=O)C(C)(OC(=O)c3cccs3)C(=O)C=C2C=C1CCCC(=O)OC (stereo unspecified) | 22.7% [at 9.22 µM] |  |
| Cc1ccc(S(=O)(=O)N(C)C)cc1NC(=S)NNC(=O)C1CC1 | 45.9% |  |
| C/C(=N\NC(=O)C(C)Oc1ccc([N+](=O)[O-])cc1)c1ccccn1 (stereo unspecified) | -82.6% |  |
| COc1ccc(-c2cc(C(=O)Nc3ccccc3O)c3ccccc3n2)cc1OC | inactive: -40.9% |  |
| Cc1cc(C)nc(-n2nc(C)cc2Nc2ccccc2)n1 | -77.2% |  |
| C=CCn1c(SCC(=O)N2CCc3ccccc3C2)nc2ccccc2c1=O | -42.8% |  |
| O=C(c1ccccc1)N1CCN(c2ncnc3sc4c(c23)CCC4)CC1 | inactive: -96.1% |  |
| COc1ccc2c(c1)c(C(=O)OCCN(C)C)c(C)n2C | 45.6% |  |
| COc1ccc(C(=O)Nc2cc(C(C)C)c(O)c(S(=O)(=O)c3ccc(OC)cc3)c2C)cc1 |  | active: 15.8 µM |
| CCOc1ccc2nc(N3CCC(C(=O)N4CCN(c5ccccn5)CC4)CC3)sc2c1 | inactive: -86.4% |  |

| Structure (SMILES) | activity change, positive = activation | Potency |
| --- | --- | --- |
| COc1ccc(-c2cc(C3CCN(Cc4ccc([N+](=O)[O-])cc4)CC3)[nH]n2)cc1 | -74.9% |  |
| CCN1CCN(C(=O)CN(c2ccccc2C)S(C)(=O)=O)CC1 | 27.6% |  |
| CC(=O)C1=C(O)CC(c2ccccc2)CC1=NCCc1c(C)[nH]c2ccc(C)cc12 (stereo unspecified) | -23.1% |  |
| Cc1sc2c(c1C)c(=O)n(CCc1ccccc1)c(=O)n2Cc1ccccc1Cl | 50% |  |
| CC(C)N=C(NC#N)SCc1ccccc1F | 35.8% |  |
| CCOC(=O)C1=C(C)NC2=C(C(=O)CCC2)C1c1cccnc1 (stereo unspecified) | 54.5% |  |
| CCOc1cc(S(=O)(=O)Nc2cc(C)cc(C)c2)ccc1Cl | -32.4% |  |
| CCOc1ccccc1N(CC(=O)Nc1cc(OC)ccc1OC)S(C)(=O)=O | 39.9% |  |
| COc1ccc2c(Cl)c(C(=O)NCC3CCCO3)sc2c1Cl (stereo unspecified) | 15.5% |  |
| COc1ccccc1C1CC(=O)Nc2cc3c(cc21)OCCO3 (stereo unspecified) | -49.9% |  |
| O=C(CSc1nnc(-c2cccnc2)s1)Nc1ccnc2ccccc12 | inactive: -69.8% |  |
| COc1cccc(/C=C/C(=O)Nc2ccc3c(c2)OCCO3)c1OC |  | active: 2.82 µM |
| CC1(C(=O)N(CC(=O)NC2CCCC2)Cc2ccco2)CC(=O)N=C2C=CC=CN21 (stereo unspecified) | 17.6% |  |
| O=C(Nc1ccc2c(c1)OCO2)C(c1ccccc1)N1CCN(C(=O)c2ccco2)CC1 (stereo unspecified) | 44% |  |
| C=CCN(CC=C)S(=O)(=O)c1ccc(NC(=S)NC(=O)/C=C/c2cccc3ccccc23)cc1 | -44.4% |  |
| CCOC(=O)C1=C(CNCc2ccc(C)cc2)NC(=O)NC1c1ccc(OC)cc1 (stereo unspecified) | 34% |  |
| CNS(=O)(=O)c1cccc(C(=O)OCC(=O)Nc2ccc(-c3nc4ccc(C)cc4s3)cc2)c1 |  | active: 1.12 µM |
| CC(C)/C=C1\CCCCC1N(C)C(=O)NC(C)C (stereo unspecified) | 30.4% |  |
| O=C(COc1ccccc1Cl)N1CCN(c2ccc(F)cc2)CC1 | 21.2% |  |
| NS(=O)(=O)c1cccc(NC(=O)Cn2cnc3ccccc3c2=O)c1 | 42.8% |  |
| Cc1cc(C(=O)COC(=O)c2ccc(O)cc2)c(C)n1CC1COc2ccccc2O1 (stereo unspecified) | inactive: -1.93% |  |
| O=C(CCCc1ccccc1)Nc1cccc(C(=O)O)c1 |  | active: 1.58 µM |

No new results follow: 3 of the compounds above.

| Structure (SMILES) | activity change, positive = activation | Potency |
| --- | --- | --- |
| COc1ccc(-c2cc(C3CCN(Cc4ccc([N+](=O)[O-])cc4)CC3)[nH]n2)cc1 | -74.9% |  |
| CCN1CCN(C(=O)CN(c2ccccc2C)S(C)(=O)=O)CC1 | 27.6% |  |
| CC(=O)C1=C(O)CC(c2ccccc2)CC1=NCCc1c(C)[nH]c2ccc(C)cc12 (stereo unspecified) | -23.1% |  |

More structures:

| Structure (SMILES) | activity change, positive = activation | Potency |
| --- | --- | --- |
| CCC(OC(=O)c1nsc(Cl)c1Cl)C(=O)NCc1ccco1 (stereo unspecified) | 31.3% |  |
| CC(C)(C)c1ccc(OCCn2ccccc2=O)cc1 |  | active: 11.2 µM |
| Cc1ccc(NC(=O)C2(N(CC(C)C)C(=O)Cn3nnnc3N)CCCCC2)cc1 | 52.9% |  |
| CCOC(=O)c1c(-c2ccc(C)cc2)csc1NC(=O)c1cc(=O)c2cc(Cl)ccc2o1 | 24% |  |
| CCOC(=O)c1sc(-c2ccc(OC)cc2)cc1N | 45.5% |  |
| CC1=CC(C)[C@H](/C=N/n2c(=O)[nH]c3c([nH]c4ccc(C)cc43)c2=O)C(C)C1 (stereo partly specified) | inactive: -69.1% |  |
| O=C(Nc1cccc2cccnc12)c1cccc2ccccc12 | inactive: -23% |  |
| Cc1cccc(NC(=S)NC2CCCCCC2)c1C | 42% |  |
| CN1CCSc2ccc(C(=O)NCc3ccccc3F)cc21 | 35.5% |  |
| COc1ccc(-c2cc3nc[nH]c(=O)c3s2)cc1 |  | active: 12.6 µM |
| COc1ccc(CC(=O)Nc2cccc(-c3ccc4nnc(C)n4n3)c2)cc1 | 61.2% |  |
| Cc1cc(N2CCN(C)CC2)nc2ccc(NC(=O)c3ccc4c(c3)OCO4)cc12 | 59.1% |  |
| CCCn1c(SCC(=O)Nc2ccccc2Oc2ccccc2)n[nH]c1=O | inactive: -33.2% |  |
| CCCc1ccc(-c2csc(NC(=O)Cc3cccs3)n2)cc1 | inactive: -91.3% |  |
| CCOc1ccc(NC(=O)CSc2nc(C)cc(C)n2)cc1 | -32.9% |  |
| c1ccc2[nH]c(NCc3ccc4c(c3)OCO4)nc2c1 | 105% |  |
| Cc1ccc(C(=O)Nc2ccc(S(=O)(=O)N3CCCC3)cc2)s1 | 30.1% |  |
| O=C(c1ccc(-c2ccc(Cl)cc2Cl)o1)N1CCOCC1 |  | active: 22.4 µM |

From PubChem BioAssay AID1458 (National Center for Advancing Translational Sciences (NCATS), 2008)
